Patent publication US20120202288A1, “COMPOSITIONS COMPRISING CYCLIC AMP ENHANCERS AND/OR EP LIGANDS, AND METHODS OF PREPARING AND USING THE SAME” (FATE THERAPEUTICS, INC., priority 2009, published 2012)
At least one structure is not confirmed: it was looked up by name or label, or the drawing left a doubt.

Test system: cytosolic cAMP in LS142T
Assay: TR-FRET cell-based assay for cAMP enhancer activity
Conditions: LS142T cells, FIG. 2, reduced fluorescence emission

C=C[C@@]1(C)CC(=O)[C@]2(O)[C@@]3(C)[C@@H](O)CCC(C)(C)[C@@H]3[C@H](O)[C@H](OC(C)=O)[C@@]2(C)O1 [forskolin]
cytosolic cAMP, dose response: caused an increase in cytosolic cAMP
